The target in the assay is Sec61β (endogenous, HEK 293) (human (endogenous in HEK 293)) (UniProt P60468). As to the kind of experiment: co-IP; non-transfected HEK 293 cells with or without 10 mM DTT for 2 hr, lysed in 50 mM Tris-HCl pH 8.0, 150 mM NaCl, 1% digitonin; IP with anti-Sec61β (control anti-GFP) on protein-A agarose; immunoblot. A general note: In western blotting, separated proteins are transferred to a membrane and probed.

The chains behind the UniProt entries cited, without tags or fusion partners. Residues count along the entry.
UniProt P60468: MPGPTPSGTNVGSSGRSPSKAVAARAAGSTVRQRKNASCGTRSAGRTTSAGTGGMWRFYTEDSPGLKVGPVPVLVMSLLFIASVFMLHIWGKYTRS
UniProt O75460, residues 19-977: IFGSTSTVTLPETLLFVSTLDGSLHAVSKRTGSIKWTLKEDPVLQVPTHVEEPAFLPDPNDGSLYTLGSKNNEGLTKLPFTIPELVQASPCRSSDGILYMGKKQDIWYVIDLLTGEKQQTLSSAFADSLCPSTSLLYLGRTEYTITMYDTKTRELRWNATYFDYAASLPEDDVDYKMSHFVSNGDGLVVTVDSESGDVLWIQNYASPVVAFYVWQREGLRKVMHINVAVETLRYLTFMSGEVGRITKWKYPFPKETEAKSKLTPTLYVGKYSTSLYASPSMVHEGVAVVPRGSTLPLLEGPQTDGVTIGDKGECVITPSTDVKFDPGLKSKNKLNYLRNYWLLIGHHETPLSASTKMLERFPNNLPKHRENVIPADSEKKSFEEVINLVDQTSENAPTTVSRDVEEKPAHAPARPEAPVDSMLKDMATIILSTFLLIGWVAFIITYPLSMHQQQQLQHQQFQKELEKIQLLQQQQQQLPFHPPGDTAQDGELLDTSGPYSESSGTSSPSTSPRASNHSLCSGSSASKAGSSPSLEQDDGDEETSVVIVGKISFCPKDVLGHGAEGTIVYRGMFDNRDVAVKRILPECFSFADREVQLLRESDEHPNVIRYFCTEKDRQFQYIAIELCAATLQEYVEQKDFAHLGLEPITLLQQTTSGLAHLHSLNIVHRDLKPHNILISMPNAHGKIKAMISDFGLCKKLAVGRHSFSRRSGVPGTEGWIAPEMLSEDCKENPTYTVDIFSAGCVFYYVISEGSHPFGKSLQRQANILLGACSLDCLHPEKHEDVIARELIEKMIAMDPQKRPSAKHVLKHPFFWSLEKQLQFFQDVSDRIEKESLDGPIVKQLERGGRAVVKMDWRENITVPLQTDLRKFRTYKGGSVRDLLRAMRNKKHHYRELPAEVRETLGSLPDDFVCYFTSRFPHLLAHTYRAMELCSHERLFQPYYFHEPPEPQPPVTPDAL

These are yes or no findings as the source states them, for the method shown. Binding seen in cells or lysates may run through a third protein. Some binding calls cover weakened binding; strength is not graded here.

For the substance “endogenous Ire1α (from UniProt O75460 19-977) (enzyme)”, the binding result was “binds”.

(Values after article PMC4456659.)
